Assay results as given in patent US20110263679A1.
No constants are given. Whether binding was seen depends on the method and setting. In cells and extracts the contact can be indirect. Some results given as binding are weak or reduced against the parent protein; the word gives no strength. Sequences can lack the tags named with a protein.

Protein sequences, listed by entry. Tags and fused reporters are not part of them. Lines headed by an entry give the natural chain unless they say otherwise; changes in a name come on top.
UniProt P09874: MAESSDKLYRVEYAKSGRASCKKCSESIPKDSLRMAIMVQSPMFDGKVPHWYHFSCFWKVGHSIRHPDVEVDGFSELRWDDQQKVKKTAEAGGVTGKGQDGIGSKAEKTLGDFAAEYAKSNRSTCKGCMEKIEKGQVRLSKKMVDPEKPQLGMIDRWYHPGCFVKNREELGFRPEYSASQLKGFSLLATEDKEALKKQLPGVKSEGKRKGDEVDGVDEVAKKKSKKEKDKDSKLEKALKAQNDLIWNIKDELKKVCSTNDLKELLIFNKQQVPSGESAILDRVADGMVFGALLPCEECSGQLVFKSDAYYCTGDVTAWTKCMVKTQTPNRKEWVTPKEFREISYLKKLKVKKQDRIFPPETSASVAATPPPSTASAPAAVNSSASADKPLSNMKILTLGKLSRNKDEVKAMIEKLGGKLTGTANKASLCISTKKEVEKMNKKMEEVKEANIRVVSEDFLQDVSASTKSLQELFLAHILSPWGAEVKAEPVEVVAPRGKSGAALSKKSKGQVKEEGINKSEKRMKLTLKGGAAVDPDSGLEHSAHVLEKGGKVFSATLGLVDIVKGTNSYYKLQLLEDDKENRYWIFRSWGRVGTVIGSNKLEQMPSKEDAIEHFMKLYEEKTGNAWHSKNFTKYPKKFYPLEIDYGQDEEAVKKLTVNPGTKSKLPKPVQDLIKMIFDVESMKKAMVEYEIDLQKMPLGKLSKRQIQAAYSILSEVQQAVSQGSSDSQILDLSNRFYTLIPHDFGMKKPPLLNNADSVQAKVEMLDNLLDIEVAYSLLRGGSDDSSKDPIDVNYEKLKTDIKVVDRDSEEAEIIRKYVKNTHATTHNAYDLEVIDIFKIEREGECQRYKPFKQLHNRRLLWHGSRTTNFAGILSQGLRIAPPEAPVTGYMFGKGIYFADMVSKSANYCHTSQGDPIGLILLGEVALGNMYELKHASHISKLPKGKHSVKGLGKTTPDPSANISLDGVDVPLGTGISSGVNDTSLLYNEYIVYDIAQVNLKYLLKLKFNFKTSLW

Experiments:
[1] = target: PARP1-Myc (Myc-tagged PARP1), expressed in HEK293 cells (Homo sapiens (Human)) (UniProt P09874); assay: co-immunoprecipitation with anti-Myc antibody from co-transfected HEK293 cells; immunoblot with anti-Flag
[2] = target: PARP1 protein (endogenous, HEK293 cells) (Homo sapiens (Human)) (UniProt P09874); assay: co-immunoprecipitation with anti-Flag M2-agarose from HEK293 lysate; silver stain, LC-MS/MS, western blot with anti-PARP1
[3] = target: PARP1 protein (endogenous, HEK293 cells) (Homo sapiens (Human)) (UniProt P09874); assay: co-immunoprecipitation with anti-Flag M2-agarose from HEK293 lysate; LC-MS/MS and western blot with anti-PARP1
[4] = target: PARP1-Myc (Myc-tagged PARP1), expressed in HEK293 cells (Homo sapiens (Human)) (UniProt P09874); assay: co-immunoprecipitation with c-Myc antibody from co-transfected HEK293 cells; western blot with anti-Flag
[5] = target: PARP1 protein (endogenous, HEK293 cells) (Homo sapiens (Human)) (UniProt P09874); assay: co-immunoprecipitation (summary in the discussion)

Measured: binding

B1: Flag-tagged C12ORF48 (pCAGGSn3xFlag-C12ORF48-HA), expressed in HEK293 cells (protein, not shown: small tags and cut ends)
chain: MDVTDHYEDVRKIYDDFLKNSNMLDLIDVYQKCRALTSNCENYNTVSPSQLLDFLSGKQYAVGDETDLSIPTSPTSKYNRDNEKVQLLARKIIFSYLNLLVNSKNDLAVAYILNIPDRGLGREAFTDLKHAAREKQMSIFLVATSFIRTIELGGKGYAPPPSDPLRTHVKGLSNFINFIDKLDEILGEIPNPSIAGGQILSVIKMQLIKGQNSRDPFCKAIEEVAQDLDLRIKNIINSQEGVVALSTTDISPARPKSHAINHGTAYCGRDTVKALLVLLDEEAANAPTKNKAELLYDEENTIHHHGTSILTLFRSPTQVNNSIKPLRERICVSMQEKKIKMKQTLIRSQFACTYKDDYMISKDNWNNVNLASKPLCVLYMENDLSEGVNPSVGRSTIGTSFGNVHLDRSKNEKVSRKSTSQTGNKSSKRKQVDLDGENILCDNRNEPPQHKNAKIPKKSNDSQNRLYGKLAKVAKSNKCTAKDKLISGQAKLTQFFRL
binds: all assays above
